From PubChem BioAssay AID493014 (National Center for Advancing Translational Sciences (NCATS), 2011)
The whole screen tested about 340,000 compounds, of which about 170 (0.05%) were called active. This list was built around the results that the source calls inconclusive (neither active nor inactive); the mix of calls is not that of the screen. Calls come from the whole dose curve; as a rule, active = well fitted inhibition curve with a large enough effect in the signal ratio, with a control signal flat (not every such curve was filed as active); inconclusive = small, poorly fitted or top-dose-only effect, or effect the other way, or a change in a side signal; inactive = flat fitted curve, though single readings scatter; the % refers to the signal ratio. Potencies beside an inconclusive call are fits to weak or partial responses and may not hold up.

test: qHTS Assay to Find Inhibitors of Chronic Active B-Cell Receptor Signaling; conditions: ABC-DLBCL IkBa-CBG/CBR reporter, luminescence ratio (green luciferase fused to IkBa over red control in TMD8 lymphoma cells), 4 h; activity change, negative = inhibition: at 46.1 µM (top of the series) unless noted;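 for activity change, negative = inhibition: plate controls were basal doxycycline-induced cells for no effect and cells given 10 µM MG132 for full effect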
Summary of the method: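 Compounds up to 46 uM were incubated four hours with TMD8 cells whose green CBG68 luciferase is fused to IkappaBalpha; red CBR luminescence normalised the signal, and concentration-effect curves were fitted to fusion, red and ratio data.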
Potency is the fitted concentration of half-maximal effect.

SMILES	activity change, negative = inhibition	Potency
CC1=CC2=NC(=O)CC(C)(C(=O)N(CC(=O)NC(C)(C)C)Cc3ccccc3)N2C=C1 (configuration not stated)	inconclusive: 23%	
Cc1noc(C)c1S(=O)(=O)N(Cc1ccccc1)C(C)C	inactive: 5.7%	
COc1ccc(CSc2nnnn2C)cc1[N+](=O)[O-]	inconclusive: -10.3%	
COc1ccc(OCCOC(=O)c2cccs2)cc1	inconclusive: 4.66%	
C=C[C@]1(C)C=C2CC[C@H]3[C@@](C)(CCC[C@@]3(C)C(=O)O)[C@@H]2CC1	inconclusive: -0.0419%	
Cc1csc(=O)n1CC(=O)OCC(=O)Nc1ccccc1C(C)C	inconclusive: 6.87%	
NC(=O)C1(N2CCCCC2)CCN(C2CC(=O)N(Cc3cccs3)C2=O)CC1 (configuration not stated)		inconclusive: 0.58 µM [falling, full curve]
Cc1ccc(/C=N/NC(=O)c2ccc3nc[nH]c3c2)o1	inconclusive: -3.54%	
CC1CCCN(S(=O)(=O)c2ccc(C(=O)Nc3nnc(-c4ccccc4Cl)o3)cc2)C1 (configuration not stated)	inactive: 7.46%	
O=C(NCC1CCCC(CNC(=O)N2CCc3ccccc32)C1)N1CCc2ccccc21 (configuration not stated)	inconclusive: 4.25%	
O=C(CN1C(=O)S/C(=C/c2cccs2)C1=O)N1CCCC1	inconclusive: 1.89%	
Cc1oc(S(=O)(=O)N(C)C)cc1C(=O)Nc1ccc(F)cc1		inconclusive: 22.4 µM [falling, single point]
Cc1cc(C(C)(C)C)ccc1OCCOCCN1CCCC1	inconclusive: -11.8%	
CCCCc1nc(N)c(C#N)c(-c2ccco2)c1CCC		inconclusive: 6.51 µM [rising, partial curve]
O=C1CSC(c2ccccc2[N+](=O)[O-])N1c1ccc(O)cc1 (configuration not stated)		inconclusive: 35.5 µM [falling, single point]
O=C(NC1CCCCC1)C(c1ccc2ncccc2c1)N(Cc1cccs1)C(=O)c1cccs1 (configuration not stated)		inconclusive: 1.58 µM [falling, partial curve, poor fit]
O=C(OC1CCc2ccccc2C1=O)c1ccccc1O (configuration not stated)	inconclusive: 4.27%	
Cc1ccc(CNC(=O)CSCC(=O)O)cc1	inconclusive: 20.5%	
OC[C@@H]1[C@@H](c2ccc(Cl)cc2)C(c2cccc(Cl)c2)=NN1c1ccccc1	inconclusive: 0.255%	
Cc1ccc(N2C(=O)C3C4C=CC(CNC(=S)N5CCN(c6ccccn6)CC5)(O4)C3C2=O)cc1 (configuration not stated)	inactive: 15.7%	
Cc1ccc(Oc2ncccc2NC(=O)CC2(CC(=O)O)CCCC2)c2c1CCC2	inconclusive: 0.115%	
O=C(COC(=O)c1ccccc1NC(=O)c1ccco1)Nc1ncc(Cl)cc1Cl		inconclusive: 32.6 µM [falling, single point]

Pulled by structure from above:
SMILES	activity change, negative = inhibition	Potency
Cc1noc(C)c1S(=O)(=O)N(Cc1ccccc1)C(C)C	inactive: 5.7%	
O=C1CSC(c2ccccc2[N+](=O)[O-])N1c1ccc(O)cc1 (configuration not stated)		inconclusive: 35.5 µM [falling, single point]
